Data as given in publication PMC4146578.
No constants are given. Whether binding was seen depends on the method and setting.

Target: FOG-PR, residues P100–V254 of murine FOG1 (Friend of GATA 1) (mouse) (UniProt O35615)
Experiment: SEC-MALS; size exclusion chromatography with in-line multi-angle laser light scattering (MALLS); mass estimate ~17.2 kDa against theoretical 17.0 kDa; both purified

binding: no binding
B1: FOG-PR, residues P100–V254 of murine FOG1 (Friend of GATA 1) (domain or fragment, UniProt O35615 100-254)
chain: PWSGPEELELALQDGQRCVRARLSLTEGLSWGPFYGSIQTRALSPEREEPGPAVTLMVDESCWLRMLPQVLTEEAANSEIYRKDDALWCRVTKVVPSGGLLYVRLVTEPHGAPRHPVQEPVEPGGLAPVHTDIQLLPQQAGMASILATAVINKDV
